No constants are given. Whether binding was seen depends on the method and setting. Binding seen in cells or lysates may run through a third protein. These calls come from enrichment with a bait or labelling near it, and not all partners need be listed.

Amino acid sequences for entries named in this document (tags omitted).
UniProt Q92826: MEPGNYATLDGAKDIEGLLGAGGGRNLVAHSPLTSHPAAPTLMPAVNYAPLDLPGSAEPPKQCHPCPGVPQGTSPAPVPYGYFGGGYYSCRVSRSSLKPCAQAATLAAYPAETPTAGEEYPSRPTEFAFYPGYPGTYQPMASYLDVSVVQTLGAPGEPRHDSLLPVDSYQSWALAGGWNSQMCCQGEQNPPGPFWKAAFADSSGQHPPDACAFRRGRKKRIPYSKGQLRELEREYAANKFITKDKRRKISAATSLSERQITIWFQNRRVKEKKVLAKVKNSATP
UniProt Q969G3: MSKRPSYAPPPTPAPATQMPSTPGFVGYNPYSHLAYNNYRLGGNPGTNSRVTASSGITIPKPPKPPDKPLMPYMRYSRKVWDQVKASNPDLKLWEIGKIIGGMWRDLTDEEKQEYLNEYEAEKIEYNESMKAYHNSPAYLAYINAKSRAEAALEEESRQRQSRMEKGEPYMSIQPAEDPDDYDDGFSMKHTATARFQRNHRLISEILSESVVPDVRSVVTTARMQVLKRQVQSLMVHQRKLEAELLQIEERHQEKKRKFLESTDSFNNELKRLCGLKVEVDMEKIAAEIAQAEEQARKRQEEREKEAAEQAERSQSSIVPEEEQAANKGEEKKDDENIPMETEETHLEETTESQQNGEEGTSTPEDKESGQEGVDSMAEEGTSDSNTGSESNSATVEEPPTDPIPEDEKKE
UniProt Q92925: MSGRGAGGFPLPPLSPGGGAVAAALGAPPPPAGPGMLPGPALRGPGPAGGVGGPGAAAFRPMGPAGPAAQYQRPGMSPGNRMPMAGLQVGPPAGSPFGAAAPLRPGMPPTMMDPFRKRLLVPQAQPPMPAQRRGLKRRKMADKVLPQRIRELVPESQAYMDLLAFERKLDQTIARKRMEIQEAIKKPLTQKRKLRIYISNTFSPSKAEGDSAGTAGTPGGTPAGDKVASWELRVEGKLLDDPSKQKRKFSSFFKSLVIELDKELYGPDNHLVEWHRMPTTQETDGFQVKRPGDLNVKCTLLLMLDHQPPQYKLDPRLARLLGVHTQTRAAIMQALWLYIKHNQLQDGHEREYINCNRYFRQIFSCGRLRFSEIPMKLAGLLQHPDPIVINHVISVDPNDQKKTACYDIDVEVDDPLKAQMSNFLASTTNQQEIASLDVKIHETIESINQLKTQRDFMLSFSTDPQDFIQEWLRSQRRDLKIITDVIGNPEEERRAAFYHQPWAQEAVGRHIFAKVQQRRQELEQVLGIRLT
UniProt P10275: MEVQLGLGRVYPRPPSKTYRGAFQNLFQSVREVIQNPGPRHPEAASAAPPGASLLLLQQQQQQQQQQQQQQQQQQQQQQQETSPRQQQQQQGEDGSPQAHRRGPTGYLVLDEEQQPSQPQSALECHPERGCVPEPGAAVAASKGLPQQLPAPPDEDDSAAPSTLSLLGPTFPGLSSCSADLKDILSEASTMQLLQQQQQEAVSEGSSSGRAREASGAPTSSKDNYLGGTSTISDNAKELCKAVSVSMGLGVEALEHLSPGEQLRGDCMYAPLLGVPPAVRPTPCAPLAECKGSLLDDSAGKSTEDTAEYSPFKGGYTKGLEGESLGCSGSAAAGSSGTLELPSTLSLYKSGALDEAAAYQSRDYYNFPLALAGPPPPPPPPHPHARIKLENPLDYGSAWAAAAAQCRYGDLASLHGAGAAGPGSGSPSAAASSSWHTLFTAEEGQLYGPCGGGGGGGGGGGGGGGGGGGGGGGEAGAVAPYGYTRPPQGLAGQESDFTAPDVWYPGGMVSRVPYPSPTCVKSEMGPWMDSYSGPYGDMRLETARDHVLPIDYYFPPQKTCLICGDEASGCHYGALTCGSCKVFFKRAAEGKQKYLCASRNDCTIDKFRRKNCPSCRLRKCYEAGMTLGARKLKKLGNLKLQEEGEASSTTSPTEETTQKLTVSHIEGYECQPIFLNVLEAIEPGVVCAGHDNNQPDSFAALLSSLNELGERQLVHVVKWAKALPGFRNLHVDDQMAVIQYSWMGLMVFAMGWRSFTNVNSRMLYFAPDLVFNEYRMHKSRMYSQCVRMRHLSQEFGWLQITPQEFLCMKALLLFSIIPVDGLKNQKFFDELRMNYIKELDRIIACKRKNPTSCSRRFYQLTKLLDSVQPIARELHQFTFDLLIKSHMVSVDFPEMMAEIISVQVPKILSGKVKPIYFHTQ
UniProt P05412: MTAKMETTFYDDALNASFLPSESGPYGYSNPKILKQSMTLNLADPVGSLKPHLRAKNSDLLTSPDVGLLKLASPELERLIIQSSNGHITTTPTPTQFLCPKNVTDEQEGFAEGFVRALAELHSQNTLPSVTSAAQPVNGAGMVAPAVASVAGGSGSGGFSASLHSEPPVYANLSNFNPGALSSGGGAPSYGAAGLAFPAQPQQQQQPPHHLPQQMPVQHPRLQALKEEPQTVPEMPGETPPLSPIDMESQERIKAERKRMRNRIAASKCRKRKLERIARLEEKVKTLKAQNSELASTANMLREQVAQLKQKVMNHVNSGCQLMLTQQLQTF
UniProt Q86U86: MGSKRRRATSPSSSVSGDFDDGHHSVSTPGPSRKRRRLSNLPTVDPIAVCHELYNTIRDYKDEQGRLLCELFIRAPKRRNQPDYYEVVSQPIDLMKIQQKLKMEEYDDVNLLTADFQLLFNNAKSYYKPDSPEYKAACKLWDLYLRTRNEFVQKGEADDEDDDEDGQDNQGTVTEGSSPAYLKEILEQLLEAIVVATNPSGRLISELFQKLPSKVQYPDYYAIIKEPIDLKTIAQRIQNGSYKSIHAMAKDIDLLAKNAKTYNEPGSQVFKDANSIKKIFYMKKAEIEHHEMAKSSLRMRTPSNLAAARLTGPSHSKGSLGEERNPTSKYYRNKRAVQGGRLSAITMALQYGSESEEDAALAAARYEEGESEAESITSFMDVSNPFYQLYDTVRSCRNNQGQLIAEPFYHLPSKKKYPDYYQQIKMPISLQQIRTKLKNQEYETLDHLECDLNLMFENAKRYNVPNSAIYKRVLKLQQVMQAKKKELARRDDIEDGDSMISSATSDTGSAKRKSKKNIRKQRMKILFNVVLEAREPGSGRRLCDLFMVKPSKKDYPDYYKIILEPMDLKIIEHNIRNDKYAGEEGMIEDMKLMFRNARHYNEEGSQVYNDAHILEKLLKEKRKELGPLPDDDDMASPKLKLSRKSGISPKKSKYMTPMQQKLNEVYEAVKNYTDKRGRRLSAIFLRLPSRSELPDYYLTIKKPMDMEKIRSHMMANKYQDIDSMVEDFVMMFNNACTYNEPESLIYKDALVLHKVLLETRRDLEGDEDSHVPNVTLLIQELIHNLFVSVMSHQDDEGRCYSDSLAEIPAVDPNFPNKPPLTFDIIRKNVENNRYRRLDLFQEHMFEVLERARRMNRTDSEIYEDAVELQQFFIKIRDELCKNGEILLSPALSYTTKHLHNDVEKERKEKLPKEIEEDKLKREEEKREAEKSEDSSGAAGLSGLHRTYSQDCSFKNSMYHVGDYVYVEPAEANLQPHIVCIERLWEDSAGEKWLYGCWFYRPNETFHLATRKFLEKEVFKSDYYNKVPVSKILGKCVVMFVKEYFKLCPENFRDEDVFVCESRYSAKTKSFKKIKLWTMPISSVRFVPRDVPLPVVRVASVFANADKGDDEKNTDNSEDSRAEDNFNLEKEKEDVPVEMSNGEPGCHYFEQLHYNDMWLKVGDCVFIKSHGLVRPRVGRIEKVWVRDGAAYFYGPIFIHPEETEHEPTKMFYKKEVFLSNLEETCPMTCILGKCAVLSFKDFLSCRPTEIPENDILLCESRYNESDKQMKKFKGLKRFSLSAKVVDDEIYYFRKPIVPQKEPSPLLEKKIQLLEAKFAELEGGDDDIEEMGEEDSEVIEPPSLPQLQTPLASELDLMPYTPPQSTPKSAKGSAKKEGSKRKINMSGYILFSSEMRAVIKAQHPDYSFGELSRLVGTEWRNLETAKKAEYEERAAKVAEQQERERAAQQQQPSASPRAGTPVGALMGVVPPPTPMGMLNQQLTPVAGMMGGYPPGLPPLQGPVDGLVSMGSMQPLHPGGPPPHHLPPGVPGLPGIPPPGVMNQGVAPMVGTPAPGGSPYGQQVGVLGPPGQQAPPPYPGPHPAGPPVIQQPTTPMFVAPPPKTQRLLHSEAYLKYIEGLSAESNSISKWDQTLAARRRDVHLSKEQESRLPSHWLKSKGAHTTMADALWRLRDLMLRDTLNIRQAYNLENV
UniProt P51532: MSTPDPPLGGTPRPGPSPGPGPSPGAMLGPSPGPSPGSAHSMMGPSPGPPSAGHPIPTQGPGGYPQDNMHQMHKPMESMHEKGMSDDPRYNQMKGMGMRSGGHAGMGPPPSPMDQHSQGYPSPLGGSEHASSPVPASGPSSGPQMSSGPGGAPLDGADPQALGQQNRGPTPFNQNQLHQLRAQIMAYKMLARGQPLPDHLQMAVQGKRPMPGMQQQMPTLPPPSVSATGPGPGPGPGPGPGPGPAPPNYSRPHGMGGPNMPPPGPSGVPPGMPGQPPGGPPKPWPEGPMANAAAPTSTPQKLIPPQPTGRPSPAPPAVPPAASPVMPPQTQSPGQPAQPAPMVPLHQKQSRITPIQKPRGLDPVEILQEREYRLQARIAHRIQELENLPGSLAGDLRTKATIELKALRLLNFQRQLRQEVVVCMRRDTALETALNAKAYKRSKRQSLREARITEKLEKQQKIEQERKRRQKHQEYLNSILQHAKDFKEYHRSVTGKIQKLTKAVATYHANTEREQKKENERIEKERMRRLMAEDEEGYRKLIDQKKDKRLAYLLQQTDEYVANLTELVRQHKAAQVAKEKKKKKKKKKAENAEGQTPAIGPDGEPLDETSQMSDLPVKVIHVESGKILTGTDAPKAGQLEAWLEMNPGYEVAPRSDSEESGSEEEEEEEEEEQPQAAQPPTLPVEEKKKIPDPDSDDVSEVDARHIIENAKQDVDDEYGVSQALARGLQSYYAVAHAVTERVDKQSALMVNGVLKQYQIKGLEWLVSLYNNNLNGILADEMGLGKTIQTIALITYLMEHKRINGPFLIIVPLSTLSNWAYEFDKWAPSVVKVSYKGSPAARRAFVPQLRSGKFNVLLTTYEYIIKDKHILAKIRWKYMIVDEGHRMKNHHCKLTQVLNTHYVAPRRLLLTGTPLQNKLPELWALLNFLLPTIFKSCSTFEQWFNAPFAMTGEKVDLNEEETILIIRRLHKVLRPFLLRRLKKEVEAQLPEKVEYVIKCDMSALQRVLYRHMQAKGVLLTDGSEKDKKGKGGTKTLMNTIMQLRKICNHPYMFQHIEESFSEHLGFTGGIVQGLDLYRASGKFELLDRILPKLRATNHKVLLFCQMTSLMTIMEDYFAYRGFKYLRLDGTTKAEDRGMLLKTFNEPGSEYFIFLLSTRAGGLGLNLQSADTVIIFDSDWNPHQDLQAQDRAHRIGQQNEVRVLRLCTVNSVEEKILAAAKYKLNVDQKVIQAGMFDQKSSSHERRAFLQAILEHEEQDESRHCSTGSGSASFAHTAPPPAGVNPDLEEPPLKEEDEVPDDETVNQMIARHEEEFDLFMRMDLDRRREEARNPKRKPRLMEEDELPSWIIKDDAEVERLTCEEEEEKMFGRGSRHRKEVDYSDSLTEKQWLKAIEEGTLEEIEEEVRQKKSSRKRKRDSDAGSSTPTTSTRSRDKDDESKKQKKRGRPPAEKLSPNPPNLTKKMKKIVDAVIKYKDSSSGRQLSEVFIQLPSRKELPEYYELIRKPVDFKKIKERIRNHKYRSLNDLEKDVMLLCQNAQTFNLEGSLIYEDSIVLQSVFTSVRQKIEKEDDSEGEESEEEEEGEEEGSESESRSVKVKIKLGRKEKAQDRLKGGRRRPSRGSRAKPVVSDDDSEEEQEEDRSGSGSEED

The target of the test is HOXB13 (human (endogenous in LNCaP, 22Rv1, PC3 and human prostate tissue)) (UniProt Q92826). Put plainly: affinity purification with mass spectrometry.

For the molecule SMARCE1 (from UniProt Q969G3 1-411), the binding result is reported as “binds”.

Take SMARCD2 (from UniProt Q92925 1-531): the binding result is recorded as “binds”.

“androgen receptor (from UniProt P10275 1-920)”: the binding entry is “binds”.

Take cJUN (from UniProt P05412 1-331): the binding entry was “binds”.

SMARCA2 (from UniProt P51531 1-1590): the binding result is “binds”.

As to PBRM1 (from UniProt Q86U86 1-1689), the binding result is reported as “binds”.

As for SMARCA4 (from UniProt P51532 1-1647), the binding result is listed as “binds”.

B1: FOXA1 (protein, UniProt P55317 1-472)
chain: MLGTVKMEGHETSDWNSYYADTQEAYSSVPVSNMNSGLGSMNSMNTYMTMNTMTTSGNMTPASFNMSYANPGLGAGLSPGAVAGMPGGSAGAMNSMTAAGVTAMGTALSPSGMGAMGAQQAASMNGLGPYAAAMNPCMSPMAYAPSNLGRSRAGGGGDAKTFKRSYPHAKPPYSYISLITMAIQQAPSKMLTLSEIYQWIMDLFPYYRQNQQRWQNSIRHSLSFNDCFVKVARSPDKPGKGSYWTLHPDSGNMFENGCYLRRQKRFKCEKQPGAGGGGGSGSGGSGAKGGPESRKDPSGASNPSADSPLHRGVHGKTGQLEGAPAPGPAASPQTLDHSGATATGGASELKTPASSTAPPISSGPGALASVPASHPAHGLAPHESQLHLKGDPHYSFNHPFSINNLMSSSEQQHKLDFKAYEQALQYSPYGSTLPASLPLGSASVTTRSPIEPSALEPAYYQGVYSRPVLNTS
In the case of B1, the binding entry is “binds”.

Source of the values: paper doi:10.1101/2023.09.04.556101.
